Some of the results follow.
What was measured:
Experiment in all cases: NMR binding call after quantification (hit when 2 of 3 NMR criteria are met) (binary (1 = binding, 0 = not binding)); higher = binding
Conditions in all cases: RNA concentration 10 µM; fragment concentration 200 µM; 293 K
SARS-CoV-2 5_SL7 RNA = system: SARS-CoV-2 5_SL7 RNA
SARS-CoV-2 5_SL8 RNA = system: SARS-CoV-2 5_SL8 RNA
[1] = system: SARS-CoV-2 attenuator hairpin (att HP) RNA
[2] = system: SARS-CoV-2 frameshift pseudoknot (PK) RNA

Measured: NMR binding call

Nc1cc(C(F)(F)F)ccc1N1CCCCC1
0: all assays above

CC(=O)Nc1cccc(C(=O)O)c1C
0: all assays above

Cc1cc(C)nc(Nc2ccccc2)n1
0: all assays above

NCc1ccccc1OC(F)(F)F
0: all assays above

COc1ccc(CNC(=O)c2csnn2)cc1
0: all assays above

O=C(NCc1ccc(F)cc1)Nc1ccccc1
0: all assays above

O=C(CC1CCCCC1)Nc1cccnc1
0: all assays above

Two entries drawn at random from those above, as already listed:
Cc1cc(C)nc(Nc2ccccc2)n1
0: all assays above

COc1ccc(CNC(=O)c2csnn2)cc1
0: all assays above

(list continues)

COC(=O)Nc1nnc(CC2CCCC2)s1
0: all assays above

CNC1CCCCC1S(C)(=O)=O (centres undefined)
0: all assays above

CCS(=O)(=O)N1CCC(C(=O)O)CC1
0: all assays above

CS(=O)(=O)NCCc1ccccc1
0: all assays above

CC(=O)Nc1ccc(N2CCN(C)CC2)cc1
0: all assays above

CC(Oc1ccccc1F)C(=O)O (centres undefined)
0: all assays above

CCOC(=O)CN1CCS(=O)(=O)CC1
0: all assays above

NC(=O)c1ccc(NC(=O)C2CCCC2)cc1
0: all assays above

N#Cc1ccc(CNCc2ccc(F)cc2)cc1
0: all assays above

Reference: the supplement of paper PMC8426693
